The results in this text go back to PubChem BioAssay AID1347423 (Functional Genomics Laboratory (NCATS/FGL), 2020).

In all, about 52,000 sequences went through this assay and about 210 (0.4%) were called active.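 How the source made its calls: active means gene whose silencing raises cell survival under the drug, median off-target-corrected z-score across its silencing RNAs 2 or more; inactive means the rest.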 This is one part of the list.

The nature of this assay: Resistance to Poly (ADP-Ribose) Polymerase inhibitor: Gene Identification via Genome-wide siRNA Screen. The conditions noted are these: mouse BRCA2 R2336H ES cells, olaparib, CellTiter-Glo viability; active compounds read high. In a few lines:
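Genome-wide siRNA screen (3 siRNAs/gene, 20 nM) in mouse ES cells carrying hypomorphic BRCA2 R2336H; olaparib 500 nM added 48 h post-transfection, CellTiter-Glo viability 72 h later. Normalized to plate-median negative control; MAD z-scores, gene median, seed-adjusted.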
Take “GGACAUUAUUCCAUCUAAGTT against C030036P15Rik”: the z-score was inactive: 0.628.
With GGUACUUUGGAAAGAAGAGTT against Gas41, the z-score was inactive: -2.13.
“GGGAAUGACGCAUCUUGAATT against 1110001A05Rik”: the z-score is inactive: 0.85.
Consider GCAGUUAUCGUGAAGUCUGTT against Tcfap4, for which the z-score is inactive: 0.82.
As for GGUUGUGGACACAUCCAAATT against Aacs, the figure is inactive: -0.153; as for GCCUGGCAGAUAUCGCUCUTT against Homez, inactive: 1.61.
Regarding GGAAUCAUGCUGAAAGAGATT against Apom, the z-score is inactive: 0.74.
As for GGAACCUGGUAGGUCAGAATT against Olfr156, the figure is inactive: -0.295.
As for “GCAGAGAGUUUUUAUCUGCTT against 4930579A11Rik”, the figure is inactive: 0.248; as for “GGUGGUUAAACCCAGACUGTT against 2310067E19Rik”, inactive: -2.8; as for “GGCUGAAGAGCCUAGAGAATT against 1700120K04Rik”, inactive: -0.648.
Regarding GCCAUUCUAGAACCUGUAGTT against Zwint, the z-score is inactive: -0.937.
As for “GGAAGAGGAGACCACUGAUTT against 2410005H09Rik”, the figure is inactive: 0.454.
As to GGAGGUCCACCUCAUUCUGTT against Gdap1, the z-score is inactive: 0.0281.
With GGGCUUCAUGGUUCAAACATT against Ppil3 the figure was inactive: -0.0468.
Regarding CGUGGUGACUAAGGAUUAUTT against Slc6a20, the z-score is inactive: 0.216.
As for “CCAACGCGCACGGCCGCGCTT against 2310037P21Rik”, the figure is inactive: -0.000569.
As for “GCCAGUUUGUUACACGCAATT against 4921533L14Rik”, the figure is inactive: -0.0971.
With GGUUUCUCUCUACGCUAUGTT against Nrp2 the figure was inactive: 1.81.
Regarding CCUCGUGUAAGUAUUUAGATT against Mrpl51, the z-score was inactive: -0.205.
With GCUGGCUGCAUAAACUUGUTT against Lipg the figure was inactive: 1.56.
With GCGUGAAUACCUAAAUGUGTT against Rec8L1, the z-score is inactive: 0.42.
As to “CGAUCAUCACCAGAACACCTT against C030030G16Rik”, the z-score is inactive: -0.846.
As for CCUGAUCGACUUCAACUUGTT against BC037095, the z-score is inactive: -0.154.
Regarding GGUAUUCACUGCUUCAUCUTT against Ubap2, the z-score was inactive: -0.0302.
As for GGAACCUACUUGUUACCUUTT against Nalp5, the figure is inactive: -1.15; as for GUUUUGGAUUCCUCUGUCATT against Olfr1097, inactive: -0.553.
As for GGCUCAAUCCAAGUCUUCATT against Olfr173, the figure is inactive: -0.0243.
As for CCAGGGUAAAAUAAACGAATT against Ostf1, the figure is inactive: -0.0269.
For the sequence “CCAUUACUCAUCGAGAGUGTT against 2610300B10Rik”, the z-score is inactive: -2.09.
As for GGUCACACAGACAUUGACATT against Tnn, the figure is inactive: 0.598.
With GGCAGACAUAAGGCUUUCUTT against Olfr1056 the figure was inactive: -0.871; with “GGUCAUGGGACAGCAAAUGTT against 2410015B03Rik”, inactive: -0.82.
With “GGGCAUCUUCCAUCUUCAATT against 4931428L18Rik”, the z-score was inactive: -1.15.
As for CCUCAAUCAAAAUGUAAGUTT against Atp6v0a2, the figure is inactive: 0.382; as for “GGACUCCAUACCACCAAUATT against 6430701C03Rik”, inactive: 0.529; as for CGGUACAUCAUUGCUGUCATT against Slc17a8, inactive: -0.486.
With GGUUGGUGAACUUGGAGGUTT against Hspa1a the figure was inactive: 0.0897; with GCUUCUACUCCAUAUUACGTT against Rbm4, inactive: -0.352.
For GGACGAGAAGCAAACUAUGTT against Pi16, the z-score was inactive: -0.73.
With “GCAAAACAUGAGCUUAAACTT against 1810004F21Rik” the figure was inactive: 0.0562; with GCCCUCCUUAUAGCUUAAUTT against Accn3, inactive: -0.137; with GGUUCACAGAUGAUACCUUTT against Rab18, inactive: 0.00702.
As for GGCCAGAGAAAUCUUGGUATT against Ppp4c, the figure is inactive: -1.7; as for GGAAACCUGGGCUUAGUCUTT against Olfr974, inactive: -1.13.
As for GCUCACAAUGCUACAUCAATT against BC050210, the figure is inactive: 2.63; as for “GCUUGAUAGACCAAAAGAUTT against 1600021C16Rik”, inactive: -1.29.
Take “GGGUAUGGAUAUGGAGGUGTT against 4732456N10Rik”: the z-score is inactive: -0.452.
As for “GGAAGAAUGGAAGAAGAAATT against 5930406N14Rik”, the figure is inactive: -0.125.
As for GCAUAAGCUACUGCUGACATT against Pcdha6, the figure is inactive: 0.869; as for “GCUCCUUCCCGUUUCUAGATT against 4921511H03Rik”, inactive: 0.403.
As for “GGAGAAUGCUGAAACACCUTT against D13Bwg1146e”, the figure is inactive: 1.92; as for “GCCUCCGUUUGAAAUAGAGTT against 6330408A02Rik”, inactive: 1.63.
Take GUGUGUGGAGAAGCCAGGATT against Timm8b: the z-score is inactive: -0.535.
With GGGAUACCCGGCGUAAUCUTT against Col4a2 the figure was inactive: -0.898; with GCAUCAGGCCCGUUCAGAATT against Ddx4, inactive: -0.0301.
With “GCUGGUCGUCAUCAAAUGUTT against 5031410I06Rik”, the z-score is inactive: 3.56.
With GGAGACAGCAUUCAUUUAUTT against Wnt16 the figure was inactive: 0.447; with GGGAACCUCACCAUUAUCATT against Olfr769, inactive: -0.997.
As for GGCAAAGCUCUAAACGGGUTT against Cnil, the figure is inactive: -0.696; as for “GGCAUCCUGAGAGAACUCATT against 6030419C18Rik”, inactive: -1; as for GGAGAUCGAUUUGGAAAACTT against Irx3, inactive: 0.29.
As to GGCAACAUCAGAAUUGGAATT against Clcn2, the z-score is inactive: -0.232.
Consider CCGGGUUCUUUGAAGUGACTT against Sepw1, for which the z-score was inactive: -1.56.
For the sequence GGACCAGGUAUUCAUGAUCTT against Sema3c, the z-score was inactive: 1.79.
In the case of GCAGACCAUAGAUAAUUGGTT against Casp14, the z-score is inactive: -0.402.
With CCCUAAUCAGUUCACCAUCTT against Tgif2 the figure was inactive: -0.757; with GGCCCAGGUGCUAUUCUUUTT against Slc12a3, inactive: 1.66.
With CCGCUACGACAAGGACAAGTT against Thap1 the figure was inactive: -2.75.
As for GGUGCUGUUUGUAGACUCATT against Fkbp1a, the figure is inactive: -0.0138.
Regarding GGAUUAUAUGCCAAGUGAUTT against Phyh, the z-score is inactive: -1.49.
GGUAUUUUUUACAGGACCATT against C78915: the z-score is inactive: 1.04.
In the case of GCAGAUCAAUGACUAUAGATT against Arhgef11, the z-score was inactive: 0.0578.
With GGAAUACAGGAAAAUCAAATT against Ell the figure was inactive: -0.513; with CCAUCCAUCAACAAAGCCATT against Pde4d, inactive: 1.02; with GCUACAGCUUCAAUUAAAUTT against Birc6, inactive: 0.0846.
With CGACCACAUGAGGAUGCAUTT against Zbtb20 the figure was inactive: 0.281; with GGAGUGGAAGAGAAAAUUUTT against Cts8, inactive: -1.44; with GGUGUUCCAGGUGAGAAAATT against Rps6kb2, inactive: -0.0706.
As for GGCACGAUUUGCUUAUUUUTT against Usf2, the figure is inactive: 0.522; as for GGAUAUGCCAGAGACACUGTT against Carf, inactive: -1.71.
As for CCUAUGCUGAAAUUCUUGATT against Ndufc2, the z-score is inactive: 0.919.
As for UCAAACUAGGUGCUGUUGUTT against Olfr584, the figure is active: -1.11.
As for GGAAUCGAGAUCUUAAACATT against Itih1, the figure is inactive: 0.279; as for UUGGAACACCCUUUCUCAATT against Olfr1206, inactive: -1.11.
For GGCCAUUUGAAUCUUCUUUTT against Pigr, the z-score was inactive: 0.954.
With GCAGUCGCUUUGUUUUAUATT against Olfr1204, the z-score was inactive: -0.218.
As for GUCCAUUGCUUAGUGCGAUTT against Olfr961, the figure is inactive: -1.46.
With GGCACAAAAUGACCAAAAUTT against Npy2r the figure was inactive: 0.103; with CGACUCUUACCAACCUUUUTT against Lhx2, inactive: -0.507; with GGGCAGAAACGGAUAAUGGTT against Fgl1, inactive: -1.66.
As for “CGUUCUAUUCUUGACAACATT against 1700029I01Rik”, the figure is inactive: -0.465; as for GGAACAGCAGCAUCACAGUTT against BC022146, inactive: -0.551; as for “GGAACAGAGCCUUUCUCAGTT against 5830442J12Rik”, inactive: 2.9.
On to GGCCGACUUGAUCAAUAACTT against Hspca, for which the z-score was inactive: 0.0146.
As for CGGUCUCUUCCUAAGUAAUTT against Cad, the figure is inactive: 0.836; as for CCUGGUAACAGUCAUAAAUTT against Lhfpl2, inactive: -0.196.
With GGAAAUUACCUUGAUGAUGTT against Anxa4 the figure was inactive: -0.924; with GCUCAACCAGUGUUAAAACTT against F2rl1, inactive: 0.0882.
As for GGAGCAGCUGUCCAUCAAUTT against Sart3, the figure is inactive: 1.33; as for GCGGGACAUAUGAAUCUACTT against Il23a, inactive: 1.05; as for GCAGUUCAUACUCUCUGCATT against Olfr919, inactive: -0.784.
Take GGCUAUGGAGUUCACCACATT against Krtap5-5: the z-score was inactive: -1.05.
